Source: the supplement of paper PMC12823440, “Inhibitors supercharge kinase turnover through native proteolytic circuits” (Nature, 2025)
Counter-ions that a name gives are not always drawn. Some of the results follow. The calls rarely recur for the same compound in another form.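 Kinases were expressed as nanoluciferase fusions in K562 cells and luminescence was read every 4 h between 2 and 18 h as percent of control, DMSO set to 100% and a positive control to 0%. A time point counts as decreased when the signal drops significantly (2 sigma). The hit call is the authors' own, does not follow from the count of time points alone, and its rule is not shown.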

The chains behind the UniProt entries cited, without tags or fusion partners. Where a name states a change or a piece, a line headed by the entry shows the natural chain unless it says otherwise.
UniProt P29317, whole entry: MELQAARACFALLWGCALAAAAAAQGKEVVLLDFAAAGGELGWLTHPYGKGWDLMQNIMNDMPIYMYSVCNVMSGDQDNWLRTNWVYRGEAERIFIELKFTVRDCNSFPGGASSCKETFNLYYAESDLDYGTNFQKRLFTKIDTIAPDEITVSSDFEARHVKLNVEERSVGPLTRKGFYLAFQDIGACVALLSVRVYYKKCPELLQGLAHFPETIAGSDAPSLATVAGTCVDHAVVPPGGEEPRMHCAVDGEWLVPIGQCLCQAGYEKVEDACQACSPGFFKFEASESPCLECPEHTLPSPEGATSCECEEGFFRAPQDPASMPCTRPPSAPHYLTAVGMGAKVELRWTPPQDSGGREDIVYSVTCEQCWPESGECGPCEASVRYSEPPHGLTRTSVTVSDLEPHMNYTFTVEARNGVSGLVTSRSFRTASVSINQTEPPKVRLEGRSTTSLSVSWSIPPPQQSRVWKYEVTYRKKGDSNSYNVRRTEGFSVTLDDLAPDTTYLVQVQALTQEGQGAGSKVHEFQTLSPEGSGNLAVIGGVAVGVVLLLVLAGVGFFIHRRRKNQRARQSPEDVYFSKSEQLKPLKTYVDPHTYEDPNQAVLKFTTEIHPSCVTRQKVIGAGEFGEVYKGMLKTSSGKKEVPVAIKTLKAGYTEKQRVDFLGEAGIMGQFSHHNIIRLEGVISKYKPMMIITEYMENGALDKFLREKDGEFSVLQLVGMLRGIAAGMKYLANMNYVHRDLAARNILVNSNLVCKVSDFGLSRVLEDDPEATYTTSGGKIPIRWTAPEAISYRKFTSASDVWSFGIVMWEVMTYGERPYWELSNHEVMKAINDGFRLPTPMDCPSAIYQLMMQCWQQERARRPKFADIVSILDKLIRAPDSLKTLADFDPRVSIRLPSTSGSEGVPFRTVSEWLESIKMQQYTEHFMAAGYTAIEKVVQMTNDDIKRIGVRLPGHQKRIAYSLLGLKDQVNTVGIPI
UniProt O75460: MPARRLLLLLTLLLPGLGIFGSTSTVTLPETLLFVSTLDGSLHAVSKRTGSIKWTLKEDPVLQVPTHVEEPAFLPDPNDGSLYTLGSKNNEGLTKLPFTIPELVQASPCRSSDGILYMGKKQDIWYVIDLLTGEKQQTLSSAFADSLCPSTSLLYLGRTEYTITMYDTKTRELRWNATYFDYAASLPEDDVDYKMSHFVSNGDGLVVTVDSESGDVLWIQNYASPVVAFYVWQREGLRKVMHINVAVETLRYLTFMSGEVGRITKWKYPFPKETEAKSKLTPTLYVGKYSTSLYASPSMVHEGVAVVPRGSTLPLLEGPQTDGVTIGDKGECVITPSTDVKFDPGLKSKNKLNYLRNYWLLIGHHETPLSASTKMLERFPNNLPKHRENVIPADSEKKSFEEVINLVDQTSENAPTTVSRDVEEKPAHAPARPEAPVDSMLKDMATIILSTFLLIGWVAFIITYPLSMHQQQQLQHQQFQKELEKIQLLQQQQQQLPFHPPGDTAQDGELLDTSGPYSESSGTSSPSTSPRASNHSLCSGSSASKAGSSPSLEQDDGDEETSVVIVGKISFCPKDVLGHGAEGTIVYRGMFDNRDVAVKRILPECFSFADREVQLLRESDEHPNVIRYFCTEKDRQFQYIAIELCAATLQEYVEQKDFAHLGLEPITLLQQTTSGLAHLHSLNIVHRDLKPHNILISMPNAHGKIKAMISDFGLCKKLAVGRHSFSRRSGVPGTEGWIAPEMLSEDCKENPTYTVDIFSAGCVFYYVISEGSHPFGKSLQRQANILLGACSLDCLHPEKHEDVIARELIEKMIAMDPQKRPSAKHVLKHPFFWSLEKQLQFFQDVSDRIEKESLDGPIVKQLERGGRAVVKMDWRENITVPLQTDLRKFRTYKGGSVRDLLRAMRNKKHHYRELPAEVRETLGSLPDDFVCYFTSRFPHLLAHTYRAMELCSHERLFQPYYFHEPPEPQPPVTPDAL
UniProt P11362, whole entry, looked up: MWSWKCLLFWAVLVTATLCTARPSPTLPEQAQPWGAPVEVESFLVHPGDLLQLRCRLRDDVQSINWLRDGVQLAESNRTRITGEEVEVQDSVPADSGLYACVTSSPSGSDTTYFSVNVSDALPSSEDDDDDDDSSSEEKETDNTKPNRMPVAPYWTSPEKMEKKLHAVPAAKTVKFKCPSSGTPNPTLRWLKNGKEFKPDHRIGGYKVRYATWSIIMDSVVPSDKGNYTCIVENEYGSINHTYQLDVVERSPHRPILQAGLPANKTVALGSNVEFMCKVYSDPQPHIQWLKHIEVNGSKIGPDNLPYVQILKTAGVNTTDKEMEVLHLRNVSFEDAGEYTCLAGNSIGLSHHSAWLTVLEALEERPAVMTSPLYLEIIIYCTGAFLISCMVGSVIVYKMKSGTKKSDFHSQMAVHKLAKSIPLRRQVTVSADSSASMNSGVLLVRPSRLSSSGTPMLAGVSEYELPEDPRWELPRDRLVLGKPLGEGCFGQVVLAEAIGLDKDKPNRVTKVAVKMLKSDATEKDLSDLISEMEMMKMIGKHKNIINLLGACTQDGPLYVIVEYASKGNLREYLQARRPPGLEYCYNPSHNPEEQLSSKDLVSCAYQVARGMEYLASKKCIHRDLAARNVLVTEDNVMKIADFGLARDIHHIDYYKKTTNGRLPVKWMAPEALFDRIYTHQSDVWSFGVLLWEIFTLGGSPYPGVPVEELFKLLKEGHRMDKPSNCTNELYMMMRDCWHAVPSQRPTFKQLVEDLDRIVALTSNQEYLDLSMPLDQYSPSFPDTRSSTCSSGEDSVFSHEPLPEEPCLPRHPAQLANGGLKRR
UniProt Q9Y616: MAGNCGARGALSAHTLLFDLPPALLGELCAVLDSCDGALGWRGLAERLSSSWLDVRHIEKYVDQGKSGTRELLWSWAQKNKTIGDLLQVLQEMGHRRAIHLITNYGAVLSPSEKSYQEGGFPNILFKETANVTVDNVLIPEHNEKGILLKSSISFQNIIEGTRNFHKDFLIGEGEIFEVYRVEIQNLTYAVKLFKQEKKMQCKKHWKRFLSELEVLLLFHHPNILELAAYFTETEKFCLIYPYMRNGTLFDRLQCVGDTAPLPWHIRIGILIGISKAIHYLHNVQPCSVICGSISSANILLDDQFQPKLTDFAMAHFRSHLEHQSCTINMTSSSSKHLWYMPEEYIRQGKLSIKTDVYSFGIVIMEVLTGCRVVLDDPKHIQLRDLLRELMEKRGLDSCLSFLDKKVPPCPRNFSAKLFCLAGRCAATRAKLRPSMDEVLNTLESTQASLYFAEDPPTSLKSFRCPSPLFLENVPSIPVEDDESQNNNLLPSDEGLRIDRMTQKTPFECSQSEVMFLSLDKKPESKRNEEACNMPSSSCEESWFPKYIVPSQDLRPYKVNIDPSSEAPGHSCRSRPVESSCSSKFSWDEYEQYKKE
UniProt P23458: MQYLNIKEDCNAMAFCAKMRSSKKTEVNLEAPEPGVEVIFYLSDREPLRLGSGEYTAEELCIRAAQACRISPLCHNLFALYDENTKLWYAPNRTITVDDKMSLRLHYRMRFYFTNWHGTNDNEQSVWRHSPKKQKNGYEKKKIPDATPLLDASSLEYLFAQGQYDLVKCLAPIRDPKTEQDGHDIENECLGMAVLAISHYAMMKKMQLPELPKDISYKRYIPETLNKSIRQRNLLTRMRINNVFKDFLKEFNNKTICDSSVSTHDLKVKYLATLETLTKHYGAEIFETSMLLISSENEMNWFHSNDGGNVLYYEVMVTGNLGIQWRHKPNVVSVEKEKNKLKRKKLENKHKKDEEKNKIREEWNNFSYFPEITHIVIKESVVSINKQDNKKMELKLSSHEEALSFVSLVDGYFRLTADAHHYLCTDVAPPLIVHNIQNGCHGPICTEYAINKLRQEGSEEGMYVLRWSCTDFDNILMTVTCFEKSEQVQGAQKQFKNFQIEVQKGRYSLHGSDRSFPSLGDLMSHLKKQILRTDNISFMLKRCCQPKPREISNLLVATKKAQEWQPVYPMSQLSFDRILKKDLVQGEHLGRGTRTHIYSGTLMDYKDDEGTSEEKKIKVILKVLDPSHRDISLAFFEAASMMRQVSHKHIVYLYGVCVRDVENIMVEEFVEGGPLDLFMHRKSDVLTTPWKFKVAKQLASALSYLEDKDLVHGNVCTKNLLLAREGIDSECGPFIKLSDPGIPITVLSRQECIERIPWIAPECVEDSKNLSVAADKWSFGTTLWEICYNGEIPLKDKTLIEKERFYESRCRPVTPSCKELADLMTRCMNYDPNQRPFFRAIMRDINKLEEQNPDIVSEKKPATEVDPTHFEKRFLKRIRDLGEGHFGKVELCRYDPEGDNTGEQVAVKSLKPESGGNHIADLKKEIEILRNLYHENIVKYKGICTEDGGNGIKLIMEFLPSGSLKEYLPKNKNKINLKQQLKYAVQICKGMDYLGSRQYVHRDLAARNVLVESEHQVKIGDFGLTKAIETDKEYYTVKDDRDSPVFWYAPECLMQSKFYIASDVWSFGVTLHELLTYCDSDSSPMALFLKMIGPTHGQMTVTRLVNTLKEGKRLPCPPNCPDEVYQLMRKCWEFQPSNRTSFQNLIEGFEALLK
UniProt P06239: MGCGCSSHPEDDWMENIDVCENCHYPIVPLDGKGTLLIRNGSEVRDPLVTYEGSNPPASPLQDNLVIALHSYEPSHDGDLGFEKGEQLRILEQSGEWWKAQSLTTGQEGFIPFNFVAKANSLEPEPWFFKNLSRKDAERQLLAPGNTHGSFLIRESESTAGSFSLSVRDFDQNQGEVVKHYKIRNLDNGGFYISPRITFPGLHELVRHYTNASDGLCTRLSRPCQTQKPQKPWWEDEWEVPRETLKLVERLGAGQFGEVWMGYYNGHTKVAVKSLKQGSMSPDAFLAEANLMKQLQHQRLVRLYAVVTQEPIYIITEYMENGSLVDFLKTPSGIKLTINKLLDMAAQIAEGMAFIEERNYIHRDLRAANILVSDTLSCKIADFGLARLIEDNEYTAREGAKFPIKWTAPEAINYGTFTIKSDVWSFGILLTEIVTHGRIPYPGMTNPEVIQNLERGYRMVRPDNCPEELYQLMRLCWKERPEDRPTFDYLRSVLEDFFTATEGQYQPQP
UniProt P53667: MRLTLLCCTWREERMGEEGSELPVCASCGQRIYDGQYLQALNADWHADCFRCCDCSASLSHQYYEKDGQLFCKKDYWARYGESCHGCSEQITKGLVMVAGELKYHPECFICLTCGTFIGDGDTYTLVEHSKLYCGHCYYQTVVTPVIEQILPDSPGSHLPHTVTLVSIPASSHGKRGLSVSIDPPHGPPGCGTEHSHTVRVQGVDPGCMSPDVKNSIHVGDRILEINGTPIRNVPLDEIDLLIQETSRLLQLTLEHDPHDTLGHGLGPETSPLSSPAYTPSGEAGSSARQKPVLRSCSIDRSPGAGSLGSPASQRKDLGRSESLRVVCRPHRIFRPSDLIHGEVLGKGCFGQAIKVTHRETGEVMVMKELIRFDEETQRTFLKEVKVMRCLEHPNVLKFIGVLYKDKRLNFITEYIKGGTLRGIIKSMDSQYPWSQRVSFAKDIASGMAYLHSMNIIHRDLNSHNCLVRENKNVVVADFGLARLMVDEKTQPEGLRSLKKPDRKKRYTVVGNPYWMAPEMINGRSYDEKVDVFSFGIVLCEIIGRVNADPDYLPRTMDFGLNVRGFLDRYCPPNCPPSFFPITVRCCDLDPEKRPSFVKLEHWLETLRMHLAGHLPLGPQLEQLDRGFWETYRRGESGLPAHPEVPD
UniProt P53671: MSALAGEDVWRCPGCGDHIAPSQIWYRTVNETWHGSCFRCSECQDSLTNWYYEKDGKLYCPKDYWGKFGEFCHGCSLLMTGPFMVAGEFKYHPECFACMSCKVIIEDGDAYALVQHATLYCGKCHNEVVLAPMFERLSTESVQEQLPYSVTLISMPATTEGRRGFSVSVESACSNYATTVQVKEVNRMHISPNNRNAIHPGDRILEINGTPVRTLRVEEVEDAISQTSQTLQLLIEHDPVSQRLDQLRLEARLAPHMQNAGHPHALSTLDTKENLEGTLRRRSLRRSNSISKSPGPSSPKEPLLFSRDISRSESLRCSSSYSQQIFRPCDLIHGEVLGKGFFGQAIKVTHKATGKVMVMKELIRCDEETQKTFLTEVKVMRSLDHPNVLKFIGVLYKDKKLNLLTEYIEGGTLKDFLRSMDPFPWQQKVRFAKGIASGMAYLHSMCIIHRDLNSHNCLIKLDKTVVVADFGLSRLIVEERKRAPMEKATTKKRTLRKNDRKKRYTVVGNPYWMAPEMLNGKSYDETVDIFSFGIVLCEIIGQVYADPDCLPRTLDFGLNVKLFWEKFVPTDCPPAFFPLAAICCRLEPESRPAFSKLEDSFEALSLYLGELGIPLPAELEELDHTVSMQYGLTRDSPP

What was measured:
Assay in all cases: number of time points (of 5) at which kinase-Nluc abundance scored as decreased, DMSO-normalised (count); higher = more persistent destabilization
Details in all cases: K562; 2-18 h
EGFR_L861Q = EGFR_L861Q (UniProt P00533)
EGFR_T790M = EGFR_T790M (UniProt P00533)
EPHA2 = EPHA2 (UniProt P29317)
ERBB3 = ERBB3 (UniProt P21860)
[1] = target: ERBB4_R711C (clone: ERBB4_mut) (UniProt Q15303)
ERN1 = ERN1 (UniProt O75460)
FGFR1 = FGFR1 (UniProt P11362)
FGFR2 = FGFR2 (UniProt P21802)
FGFR3 = FGFR3 (UniProt P22607)
FGR = FGR (UniProt P09769)
FLT3 = FLT3 (UniProt P36888)
FYN = FYN (UniProt P06241)
GSK3A = GSK3A (UniProt P49840)
HER2 = HER2 (UniProt P04626)
INSRR = INSRR (UniProt P14616)
IRAK3 = IRAK3 (UniProt Q9Y616)
JAK1 = JAK1 (UniProt P23458)
LCK = LCK (UniProt P06239)
LIMK1 = LIMK1 (UniProt P53667)
LIMK2 = LIMK2 (UniProt P53671)

SMILES | number of time points (EGFR_L861Q) | number of time points (EGFR_T790M) | number of time points (EPHA2) | number of time points (ERBB3) | number of time points [1] | number of time points (ERN1) | number of time points (FGFR1) | number of time points (FGFR2) | number of time points (FGFR3) | number of time points (FGR) | number of time points (FLT3) | number of time points (FYN) | number of time points (GSK3A) | number of time points (HER2) | number of time points (INSRR) | number of time points (IRAK3) | number of time points (JAK1) | number of time points (LCK) | number of time points (LIMK1) | number of time points (LIMK2)
COc1cc2nccc(Oc3ccc(NC(=O)NC4CC4)c(Cl)c3)c2cc1C(N)=O [Lenvatinib] (10 µM) | 0 | 0 | 0 | 0 | 0 | 0 | 0 | 0 | 0 | 0 | 0 | 0 | 0 | 1 | 0 | 0 | 0 | 0 | 0 | 0
c1cc(-c2c[nH]c3nccc(N4CCC[C@@]5(CCCCN5)C4)c23)ncn1 (10 µM) | 0 | 0 | 0 | 0 | 0 | 0 | 0 | 0 | 0 | 0 | 0 | 0 | 0 | 0 | 0 | 0 | 0 | 0 | 0 | 0
O=c1[nH]c(=O)n([C@@H]2O[C@H](CO)[C@@H](O)[C@@H]2O)cc1/C=C/Br [Sorivudine] (10 µM) | 0 | 0 | 0 | 0 | 0 | 0 | 0 | 0 | 0 | 0 | 0 | 0 | 0 | 0 | 0 | 0 | 0 | 0 | 0 | 0
CCS(=O)(=O)Nc1ccc2[nH]c(O)c(C(=Nc3ccc(CN4CCCCC4)cc3)c3ccccc3)c2c1 [Hesperadin] (2.5 µM) | 3 | 0 | 0 | 3 | 3 | 0 | 0 | 3 | 2 | 0 | 3 | 3 | 0 | 1 | 3 | 3 | 3 | 0 | 4 | 1
S=C(SSC(=S)N1CCOCC1)N1CCOCC1 (10 µM) | 3 | 0 | 0 | 0 | 1 | 0 | 0 | 3 | 0 | 1 | 0 | 3 | 0 | 0 | 0 | 2 | 0 | 0 | 2 | 4
NS(=O)(=O)c1ccc(-n2nc(C(F)(F)F)cc2-c2ccc(Cl)cc2)cc1 (10 µM) | 0 | 0 | 0 | 0 | 0 | 0 | 0 | 0 | 0 | 0 | 0 | 0 | 0 | 0 | 0 | 0 | 0 | 0 | 0 | 0
O=C(Nc1ccc(CN2CCOCC2)cc1)c1ccc(-c2cccc(Cl)c2)o1 (10 µM) | 0 | 0 | 0 | 0 | 0 | 0 | 0 | 0 | 0 | 0 | 0 | 0 | 0 | 0 | 0 | 0 | 0 | 0 | 0 | 0
C=CC(=O)Nc1cc(Nc2ncc(Cl)c(-c3c[nH]c4ccccc34)n2)c(OC)cc1N(C)CCN(C)C [Mutant EGFR inhibitor] (2.5 µM) | 0 | 0 | 0 | 1 | 0 | 0 | 2 | 1 | 0 | 0 | 0 | 0 | 0 | 4 | 2 | 1 | 0 | 0 | 4 | 2
CCS(=O)(=O)c1ncc(Cl)c(C(=O)N(Cc2ccc(Cl)cc2)Cc2ccco2)n1 (2.5 µM) | 0 | 0 | 0 | 0 | 0 | 2 | 0 | 2 | 0 | 0 | 0 | 5 | 0 | 0 | 0 | 3 | 0 | 0 | 0 | 0
COc1cc2nccc(Oc3ccc(NC(=O)NC4CC4)c(Cl)c3)c2cc1C(N)=O [Lenvatinib (mesylate)] (10 µM) | 3 | 1 | 0 | 4 | 4 | 0 | 0 | 0 | 0 | 0 | 3 | 0 | 0 | 1 | 2 | 2 | 3 | 0 | 0 | 0
COc1ncc(Cl)cc1S(=O)(=O)Nc1ccc(F)c(C#Cc2cnc(N)nc2)c1F (2.5 µM) | 0 | 0 | 0 | 0 | 0 | 0 | 0 | 0 | 0 | 0 | 0 | 0 | 0 | 3 | 0 | 0 | 0 | 0 | 0 | 0
Nc1nc(F)nc2c1ncn2[C@@H]1O[C@H](CO)[C@@H](O)[C@@H]1O [Fludarabine] (10 µM) | 0 | 0 | 0 | 0 | 0 | 0 | 0 | 0 | 0 | 0 | 0 | 0 | 0 | 0 | 0 | 0 | 0 | 0 | 0 | 0
C=CC(=O)Nc1ccc(CN2C(=O)N(c3cc(OC)cc(OC)c3)Cc3cnc(Nc4ccc(N5CCN(C)CC5)cc4)nc32)cc1 (2.5 µM) | 0 | 0 | 0 | 0 | 0 | 0 | 0 | 0 | 0 | 0 | 0 | 0 | 0 | 5 | 0 | 0 | 0 | 0 | 4 | 0
COc1cc(Nc2ncc(F)c(Nc3ccc4c(n3)N(COP(=O)(O)O)C(=O)C(C)(C)O4)n2)cc(OC)c1OC [Fostamatinib (disodium hexahydrate)] (10 µM) | 0 | 0 | 0 | 0 | 0 | 0 | 0 | 0 | 0 | 0 | 0 | 0 | 0 | 0 | 0 | 0 | 0 | 0 | 2 | 0
CC(=O)c1c(C)cc2cccc(O)c2c1O [Nepodin] (10 µM) | 0 | 0 | 0 | 0 | 0 | 0 | 0 | 0 | 0 | 0 | 0 | 0 | 0 | 0 | 0 | 0 | 0 | 0 | 0 | 0
O=c1cc(CN2CCOCC2)occ1OCCCCCSc1ccnc2cc(C(F)(F)F)ccc12 (10 µM) | 0 | 0 | 0 | 0 | 0 | 0 | 0 | 0 | 0 | 0 | 0 | 0 | 0 | 0 | 0 | 0 | 0 | 0 | 0 | 0
Oc1ccc(Nc2nc(-c3ccc(Cl)cc3)cs2)cc1 (10 µM) | 0 | 0 | 0 | 0 | 0 | 0 | 0 | 0 | 0 | 0 | 0 | 0 | 0 | 0 | 0 | 0 | 0 | 0 | 0 | 0
C[C@@H]1CC[C@@H](Nc2nc(NC(C)(C)C)ncc2C(N)=O)C[C@H]1O (10 µM) | 0 | 0 | 0 | 0 | 0 | 0 | 0 | 0 | 0 | 0 | 0 | 0 | 0 | 0 | 0 | 0 | 0 | 0 | 0 | 0
NCCNS(=O)(=O)c1cccc2c(Cl)cccc12 [A-3 (hydrochloride)] (10 µM) | 0 | 0 | 0 | 0 | 0 | 0 | 0 | 0 | 0 | 0 | 0 | 0 | 0 | 0 | 0 | 0 | 0 | 0 | 0 | 0
CC(C)(C)c1cc(O)ccc1O (10 µM) | 0 | 0 | 0 | 0 | 0 | 0 | 3 | 0 | 0 | 0 | 0 | 0 | 0 | 0 | 0 | 0 | 0 | 0 | 0 | 0
FC(F)c1nc2ccccc2n1-c1nc(N2CCOCC2)nc(N2CCOCC2)n1 (2 µM) | 0 | 0 | 0 | 0 | 1 | 0 | 0 | 0 | 0 | 0 | 0 | 0 | 0 | 0 | 0 | 0 | 0 | 0 | 3 | 0
COc1cc(Nc2ncc(F)c(Nc3ccc4c(n3)N(COP(=O)(O)O)C(=O)C(C)(C)O4)n2)cc(OC)c1OC [Fostamatinib Disodium] (10 µM) | 0 | 0 | 0 | 0 | 0 | 0 | 0 | 0 | 0 | 0 | 0 | 1 | 4 | 0 | 0 | 0 | 0 | 0 | 3 | 0
CCC(C)N1c2ccccc2C(=O)N(C)c2cnc(Nc3ccc(C(=O)N4CCC(N5CCN(C)CC5)CC4)cc3OC)nc21 (stereo not given) (2.5 µM) | 0 | 0 | 0 | 0 | 0 | 0 | 0 | 0 | 0 | 0 | 0 | 0 | 0 | 0 | 0 | 0 | 0 | 0 | 0 | 0
CCOC(=O)N1CCN(C(=O)[C@H](Cc2cccc(C(=N)N)c2)NS(=O)(=O)c2c(C(C)C)cc(C(C)C)cc2C(C)C)CC1 (10 µM) | 0 | 0 | 0 | 0 | 0 | 0 | 0 | 0 | 0 | 0 | 0 | 0 | 0 | 0 | 0 | 0 | 0 | 0 | 0 | 0

Looked up one by one from above, two records:
SMILES | number of time points (EGFR_L861Q) | number of time points (EGFR_T790M) | number of time points (EPHA2) | number of time points (ERBB3) | number of time points [1] | number of time points (ERN1) | number of time points (FGFR1) | number of time points (FGFR2) | number of time points (FGFR3) | number of time points (FGR) | number of time points (FLT3) | number of time points (FYN) | number of time points (GSK3A) | number of time points (HER2) | number of time points (INSRR) | number of time points (IRAK3) | number of time points (JAK1) | number of time points (LCK) | number of time points (LIMK1) | number of time points (LIMK2)
CC(=O)c1c(C)cc2cccc(O)c2c1O [Nepodin] (10 µM) | 0 | 0 | 0 | 0 | 0 | 0 | 0 | 0 | 0 | 0 | 0 | 0 | 0 | 0 | 0 | 0 | 0 | 0 | 0 | 0
CC(C)(C)c1cc(O)ccc1O (10 µM) | 0 | 0 | 0 | 0 | 0 | 0 | 3 | 0 | 0 | 0 | 0 | 0 | 0 | 0 | 0 | 0 | 0 | 0 | 0 | 0
